Measured values as given in patent US12578329B2, “Reagent kit containing polypeptide for use in detection of intermolecular interactions” (SHIMADZU CORPORATION, priority 2021, dated 2026).

Assay: Measurement of emission spectrum
Type: biochemical

B1: picALuc30: SEQ ID NO: 51; amino acids 54 to 175 of ALuc30 wt, without the N terminus and C terminus; 13 kDa luciferase (protein)
chain: KLPGKKLPLEVLKELEANAQKAGCTRGCLICLSHIKCTAKMKKWLPGRCESWEGDKETGQGGIGEAIVDIPEIPGFKELAPMEQFIAQVDLCADCTTGCLKGLANVKCSALLKKWLPSRCAG
modifications: picALuc30
notes: amino acids 54 to 175 of ALuc30 wt, without the N terminus and C terminus; 13 kDa luciferase
With B1 the wavelength peak (reacted with coelenterazine) was 482 nm and the wavelength peak (reacted with coelenterazine h) was 488 nm.
